These results are taken from patent publication US20170328922A1, “METHODS AND PRODUCTS FOR LABELLING LIPIDS” (UNIVERSITY OF SOUTH AUSTRALIA, priority 2014, published 2017).

The data set has as its system acidic compartment. Description: pH estimate of acidic compartments from 440 nm/560 nm emission ratio. Type of data set: cell-based.

In the case of `N#Cc1ccc(-c2nn[n]([Re](=[C]=O)(=[C]=O)=[C]=O)n2)cc1.c1cnc2c(c1)ccc1cccnc12` [PhenCyano, Triscarbonyl phenanthroline (4-cyanophenyltetrazolato)Rhenium(I)], for the setting “confocal microscopy”, the “ratio of emission at 440 nm to 560 nm in an acidic compartment” value is on record as 1.29. Besides, the “pH of the acidic compartment read from the ratio plot” value (ratio applied to FIG. 14, assuming pH<6) is listed as around 3.70 pH.
